These results are taken from paper PMC5806685.

The chains behind the UniProt entries cited, without tags or fusion partners. Where a name states a change or a piece, a line headed by the entry shows the natural chain unless it says otherwise.
UniProt P11716: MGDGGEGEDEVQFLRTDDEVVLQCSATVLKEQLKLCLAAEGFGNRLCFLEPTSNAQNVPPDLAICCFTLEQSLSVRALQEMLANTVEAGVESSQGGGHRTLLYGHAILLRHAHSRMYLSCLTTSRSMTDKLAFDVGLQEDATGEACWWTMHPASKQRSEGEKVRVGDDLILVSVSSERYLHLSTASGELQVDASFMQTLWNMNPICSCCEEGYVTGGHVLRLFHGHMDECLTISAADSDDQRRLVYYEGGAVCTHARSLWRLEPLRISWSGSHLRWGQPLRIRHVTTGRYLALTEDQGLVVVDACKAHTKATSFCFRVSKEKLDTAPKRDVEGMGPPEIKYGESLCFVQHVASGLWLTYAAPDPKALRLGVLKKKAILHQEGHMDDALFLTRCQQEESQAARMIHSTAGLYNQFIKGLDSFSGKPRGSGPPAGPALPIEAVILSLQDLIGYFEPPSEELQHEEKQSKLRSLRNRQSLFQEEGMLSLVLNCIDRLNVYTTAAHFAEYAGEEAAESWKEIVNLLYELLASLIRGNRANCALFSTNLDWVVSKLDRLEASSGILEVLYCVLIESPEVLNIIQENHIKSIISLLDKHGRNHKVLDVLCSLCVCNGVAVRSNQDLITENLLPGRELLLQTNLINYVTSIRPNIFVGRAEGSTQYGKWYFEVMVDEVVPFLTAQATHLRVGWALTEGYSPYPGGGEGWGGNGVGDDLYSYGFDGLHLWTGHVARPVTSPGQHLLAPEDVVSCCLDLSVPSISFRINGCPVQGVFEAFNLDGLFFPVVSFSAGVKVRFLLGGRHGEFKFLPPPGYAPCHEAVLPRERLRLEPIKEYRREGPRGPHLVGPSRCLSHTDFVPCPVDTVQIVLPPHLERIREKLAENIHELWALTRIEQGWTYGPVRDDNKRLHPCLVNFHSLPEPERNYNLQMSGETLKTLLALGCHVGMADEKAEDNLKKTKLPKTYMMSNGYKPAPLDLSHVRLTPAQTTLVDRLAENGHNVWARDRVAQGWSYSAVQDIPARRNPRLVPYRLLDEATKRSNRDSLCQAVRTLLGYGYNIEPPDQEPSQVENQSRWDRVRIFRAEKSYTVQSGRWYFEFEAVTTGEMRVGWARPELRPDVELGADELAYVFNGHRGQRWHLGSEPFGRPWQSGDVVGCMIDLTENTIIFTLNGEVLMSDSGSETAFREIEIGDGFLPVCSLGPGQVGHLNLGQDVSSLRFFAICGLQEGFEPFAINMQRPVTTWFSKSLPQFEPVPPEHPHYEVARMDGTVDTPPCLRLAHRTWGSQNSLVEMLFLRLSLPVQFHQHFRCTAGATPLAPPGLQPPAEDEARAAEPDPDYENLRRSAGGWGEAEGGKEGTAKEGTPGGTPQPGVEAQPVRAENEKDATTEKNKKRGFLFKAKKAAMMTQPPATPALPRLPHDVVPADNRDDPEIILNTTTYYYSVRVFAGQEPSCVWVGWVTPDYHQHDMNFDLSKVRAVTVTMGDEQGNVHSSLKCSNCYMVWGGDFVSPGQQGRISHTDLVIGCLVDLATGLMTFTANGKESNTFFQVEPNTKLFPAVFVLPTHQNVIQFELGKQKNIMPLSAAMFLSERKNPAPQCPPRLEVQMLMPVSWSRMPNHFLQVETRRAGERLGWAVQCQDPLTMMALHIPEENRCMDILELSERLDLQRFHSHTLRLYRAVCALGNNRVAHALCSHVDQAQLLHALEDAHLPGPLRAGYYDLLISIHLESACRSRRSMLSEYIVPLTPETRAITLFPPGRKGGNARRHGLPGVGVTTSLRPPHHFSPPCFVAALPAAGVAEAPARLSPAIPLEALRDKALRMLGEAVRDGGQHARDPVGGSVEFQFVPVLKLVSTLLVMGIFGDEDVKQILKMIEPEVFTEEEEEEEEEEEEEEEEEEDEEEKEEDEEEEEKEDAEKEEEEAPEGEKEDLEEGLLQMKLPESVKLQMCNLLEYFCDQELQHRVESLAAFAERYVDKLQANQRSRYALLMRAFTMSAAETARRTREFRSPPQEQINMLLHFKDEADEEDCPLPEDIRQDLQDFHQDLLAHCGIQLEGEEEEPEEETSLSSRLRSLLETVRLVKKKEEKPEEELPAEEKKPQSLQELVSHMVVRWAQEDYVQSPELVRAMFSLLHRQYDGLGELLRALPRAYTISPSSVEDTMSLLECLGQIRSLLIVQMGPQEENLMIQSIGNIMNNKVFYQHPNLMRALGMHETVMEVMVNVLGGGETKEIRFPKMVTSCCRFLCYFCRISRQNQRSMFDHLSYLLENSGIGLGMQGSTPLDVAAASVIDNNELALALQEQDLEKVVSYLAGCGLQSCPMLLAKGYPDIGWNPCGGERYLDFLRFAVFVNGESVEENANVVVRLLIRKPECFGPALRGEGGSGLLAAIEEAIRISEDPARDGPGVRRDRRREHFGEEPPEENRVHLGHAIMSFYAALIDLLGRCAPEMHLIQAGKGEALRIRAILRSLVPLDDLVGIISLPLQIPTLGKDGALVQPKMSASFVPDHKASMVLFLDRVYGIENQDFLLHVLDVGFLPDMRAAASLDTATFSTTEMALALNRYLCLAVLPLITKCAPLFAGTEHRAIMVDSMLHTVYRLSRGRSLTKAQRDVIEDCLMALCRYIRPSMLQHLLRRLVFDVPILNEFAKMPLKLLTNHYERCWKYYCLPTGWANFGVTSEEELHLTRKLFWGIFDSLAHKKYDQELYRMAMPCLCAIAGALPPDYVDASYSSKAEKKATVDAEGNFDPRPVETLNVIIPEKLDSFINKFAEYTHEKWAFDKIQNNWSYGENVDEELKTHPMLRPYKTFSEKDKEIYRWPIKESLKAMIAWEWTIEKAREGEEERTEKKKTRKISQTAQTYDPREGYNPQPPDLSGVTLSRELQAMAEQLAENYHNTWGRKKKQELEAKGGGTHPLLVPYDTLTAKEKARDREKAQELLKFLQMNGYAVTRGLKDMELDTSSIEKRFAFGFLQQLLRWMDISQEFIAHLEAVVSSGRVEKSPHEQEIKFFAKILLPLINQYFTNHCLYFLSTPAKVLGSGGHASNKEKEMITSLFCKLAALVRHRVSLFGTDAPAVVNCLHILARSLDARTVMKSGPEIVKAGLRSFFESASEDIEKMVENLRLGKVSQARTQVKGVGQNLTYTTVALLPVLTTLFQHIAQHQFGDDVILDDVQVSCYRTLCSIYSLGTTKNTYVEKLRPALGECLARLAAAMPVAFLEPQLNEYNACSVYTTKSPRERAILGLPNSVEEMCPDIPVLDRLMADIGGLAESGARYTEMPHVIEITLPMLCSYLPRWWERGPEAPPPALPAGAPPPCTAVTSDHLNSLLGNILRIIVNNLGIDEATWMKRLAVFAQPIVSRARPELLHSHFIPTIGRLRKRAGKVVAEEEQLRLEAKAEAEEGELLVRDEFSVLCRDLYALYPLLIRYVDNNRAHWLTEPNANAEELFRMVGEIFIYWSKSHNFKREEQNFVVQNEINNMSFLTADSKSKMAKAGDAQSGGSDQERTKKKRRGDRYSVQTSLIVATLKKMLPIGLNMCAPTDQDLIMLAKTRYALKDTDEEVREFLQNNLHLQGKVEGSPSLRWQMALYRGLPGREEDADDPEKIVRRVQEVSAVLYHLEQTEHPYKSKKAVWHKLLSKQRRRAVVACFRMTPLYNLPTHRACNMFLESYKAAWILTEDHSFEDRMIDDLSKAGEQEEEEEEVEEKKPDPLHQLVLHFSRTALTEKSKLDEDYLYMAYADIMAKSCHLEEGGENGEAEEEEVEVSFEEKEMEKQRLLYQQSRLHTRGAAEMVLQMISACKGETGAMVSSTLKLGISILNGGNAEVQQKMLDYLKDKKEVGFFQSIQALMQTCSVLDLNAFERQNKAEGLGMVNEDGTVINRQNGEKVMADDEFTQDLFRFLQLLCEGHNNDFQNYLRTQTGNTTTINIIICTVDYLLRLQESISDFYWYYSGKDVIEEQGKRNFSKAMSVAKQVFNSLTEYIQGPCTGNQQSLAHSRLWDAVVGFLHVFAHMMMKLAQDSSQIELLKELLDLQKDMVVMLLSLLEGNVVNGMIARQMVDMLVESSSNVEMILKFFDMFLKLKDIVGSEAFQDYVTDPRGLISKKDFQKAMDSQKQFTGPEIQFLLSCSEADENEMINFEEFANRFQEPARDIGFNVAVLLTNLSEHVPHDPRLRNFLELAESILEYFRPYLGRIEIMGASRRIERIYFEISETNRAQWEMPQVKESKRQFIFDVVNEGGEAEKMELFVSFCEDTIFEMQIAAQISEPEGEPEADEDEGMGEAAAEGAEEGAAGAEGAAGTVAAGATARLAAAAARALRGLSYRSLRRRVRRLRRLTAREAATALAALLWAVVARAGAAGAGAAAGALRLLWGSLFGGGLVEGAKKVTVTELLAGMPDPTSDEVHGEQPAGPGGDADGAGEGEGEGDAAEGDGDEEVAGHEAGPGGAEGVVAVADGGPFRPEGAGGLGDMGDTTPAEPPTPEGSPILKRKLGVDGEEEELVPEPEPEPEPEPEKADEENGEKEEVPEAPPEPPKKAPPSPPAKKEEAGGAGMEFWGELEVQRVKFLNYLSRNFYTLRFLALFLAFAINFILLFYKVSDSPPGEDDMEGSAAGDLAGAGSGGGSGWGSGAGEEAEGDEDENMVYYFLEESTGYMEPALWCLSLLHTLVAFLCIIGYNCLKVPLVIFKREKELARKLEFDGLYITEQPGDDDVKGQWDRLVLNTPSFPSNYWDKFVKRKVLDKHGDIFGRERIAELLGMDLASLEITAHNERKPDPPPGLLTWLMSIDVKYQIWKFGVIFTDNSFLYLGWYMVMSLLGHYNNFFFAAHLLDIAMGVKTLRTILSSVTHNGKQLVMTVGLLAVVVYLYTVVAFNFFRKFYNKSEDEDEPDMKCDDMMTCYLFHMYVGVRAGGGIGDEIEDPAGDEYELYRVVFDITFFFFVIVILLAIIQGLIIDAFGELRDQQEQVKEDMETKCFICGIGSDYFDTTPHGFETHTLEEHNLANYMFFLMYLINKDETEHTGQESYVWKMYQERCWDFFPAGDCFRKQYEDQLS

Assay [1] has as its target EYFP-RyR1_(1:4300) (N-terminal 4,300 residues of rabbit type 1 ryanodine receptor), expressed in tsA201 cells (rabbit) (UniProt P11716). The assay is described as follows: FRET or BRET. Background: BRET reads energy transfer from a luciferase to a nearby fluorophore.
Assay [2] has the same target. The assay is described as follows: SEC. Background: In gel filtration, larger molecules generally elute earlier.

For the substance “EYFP-RyR1_(1:4300) (N-terminal 4,300 residues of rabbit type 1 ryanodine receptor), expressed in tsA201 cells, P11716 1-4300”, in assay [1], the FRET efficiency amounted to 3.2. The substance also gave a percent in complexes larger in size than the monomer in assay [2] of 25%.
